Test results: patent US20130178597A1, “POLYIMIDE PRECURSOR, POLYIMIDE, AND MATERIALS TO BE USED IN PRODUCING SAME” (UBE INDUSTRIES, LTD., priority 2010, published 2013)

What was measured:
[1] = Light transmittance of solvent at 400 nm after heating with refluxing; format: physicochemical; conditions: heated to reflux for 3 hours under nitrogen atmosphere
Description: For light transmittance after heating with refluxing, measurement was carried out using a solvent that had been heated to reflux for 3 hours under nitrogen atmosphere having oxygen concentration of 200 ppm or less.

[2] = Light transmittance of solvent at 400 nm; format: physicochemical; conditions: light path 1 cm, water as a blank
Description: Using a MCPD-300 manufactured by Otsuka Electronics Co., Ltd., and a standard cell having a light path length of 1 cm, the light transmittance of a solvent at 400 nm was measured using water as a blank.

Compound: CC(=O)N(C)C [DMAc (99.99%), N,N-dimethylacetamide]
- Light Transmittance at 400 nm after reflux (solvent) [1]: 92%
- Light Transmittance at 400 nm (solvent) [2]: 92%
